The results in this text go back to article PMC9278983, “Biochemical and Structural Characterization of Thermostable GH159 Glycoside Hydrolases Exhibiting α-L-Arabinofuranosidase Activity” (Frontiers in Molecular Biosciences, 2022).

Results are given in words; binding and its absence hold for the method and conditions named.

In the test the target is Ch_Gaf159A (Caldicellulosiruptor hydrothermalis) (UniProt E4QB49). Nature of the test: SEC; size-exclusion chromatography of purified Ch_Gaf159A; conditions not given; both purified.

B1: Ch_Gaf159A (enzyme, UniProt E4QB49 2-311)
chain: PRPPAPLFRDPIYDGAADPTIIYNHLEKSWWILYTNRRANQKLPGKAFMHGTDIGIAESKDGGRTWFYRGTIELQYGRGRNTFWAPEVIFYEGEYHMYVSFVPGVPQDWNAERYILYYKSKNLWDWEFVCKLELSSNKVIDACVFQMPDGTFRMWYKDEADHSYIYAAESNNLKDWKILGPALTDRPQEGPNVFWWKSKYWMITDPWCGLGVYSSEDATAWHRHENILDRPGKREDDGQIGHHADVLVIDDETAYIFYFTHPEGMEGTEEFWKDSKYWRTSLQVAKLEYVDGKVVCDRDKEFDFYLPDLF
For B1, the binding entry was “no binding”.
